Reference: paper PMC3708844 (2013)
Results are given in words; binding and its absence hold for the method and conditions named. Binding can be weak; no strength is given. Sequences can lack the tags named with a protein.

Target: T1, FRY2/CPL1, full length, fused with the DNA binding domain (BD) (Arabidopsis thaliana) (UniProt Q5YDB6)
T1 sequence: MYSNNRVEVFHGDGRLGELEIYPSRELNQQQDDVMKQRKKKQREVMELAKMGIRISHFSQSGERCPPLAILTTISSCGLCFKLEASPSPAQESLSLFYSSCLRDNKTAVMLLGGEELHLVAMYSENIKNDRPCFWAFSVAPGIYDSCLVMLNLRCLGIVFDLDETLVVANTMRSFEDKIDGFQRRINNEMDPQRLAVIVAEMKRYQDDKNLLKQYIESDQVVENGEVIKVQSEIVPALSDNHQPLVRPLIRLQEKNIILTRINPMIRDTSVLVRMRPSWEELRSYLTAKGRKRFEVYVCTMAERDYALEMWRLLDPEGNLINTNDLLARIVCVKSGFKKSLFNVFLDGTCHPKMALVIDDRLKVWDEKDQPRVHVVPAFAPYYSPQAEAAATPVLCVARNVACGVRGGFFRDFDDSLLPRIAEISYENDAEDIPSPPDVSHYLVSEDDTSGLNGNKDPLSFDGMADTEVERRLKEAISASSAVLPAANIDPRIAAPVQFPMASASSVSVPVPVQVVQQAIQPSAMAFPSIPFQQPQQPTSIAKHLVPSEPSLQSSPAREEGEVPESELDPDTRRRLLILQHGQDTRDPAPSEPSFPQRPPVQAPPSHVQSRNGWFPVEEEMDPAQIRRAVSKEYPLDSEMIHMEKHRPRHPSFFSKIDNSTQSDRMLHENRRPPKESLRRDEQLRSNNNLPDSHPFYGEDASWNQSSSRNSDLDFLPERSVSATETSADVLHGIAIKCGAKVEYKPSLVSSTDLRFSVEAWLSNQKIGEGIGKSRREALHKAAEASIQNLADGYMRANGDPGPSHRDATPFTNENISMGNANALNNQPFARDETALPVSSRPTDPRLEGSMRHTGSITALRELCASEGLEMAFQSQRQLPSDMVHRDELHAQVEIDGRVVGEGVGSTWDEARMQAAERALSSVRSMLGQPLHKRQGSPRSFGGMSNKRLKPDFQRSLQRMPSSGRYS
Assay: two-hybrid; directed tests and deletion analysis in Y190: SHI1 forms fused with the AD against full length FRY2-BD, FRY2 forms fused with the AD against full length SHI1-BD; growth on medium minus Trp, Leu and His with 3-AT and X-gal assay

Row | Substance | binding
1 | SHI1 first KH domain, fused with the activation domain (AD) (Arabidopsis thaliana) (domain or fragment) | binds
2 | SHI1 third KH domain, fused with the activation domain (AD) (Arabidopsis thaliana) (domain or fragment) | binds
